PubChem BioAssay AID493246 – Drosophila RNAi Screening Center – 2011
The screen tested about 21,000 reagents; shown is an unselected part of those that have a named target and a result. Over the whole deposit, 429 (2%) got an active call. 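Values are raw and not normalised between plates; calls rest on per-plate z-scores that were not deposited.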 A number with no mark means an inactive call. Names joined by + are all predicted targets of the reagent. Reagent sequences are not shown. The record does not give: the amount of reagent, the time to read-out.

Screen: 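Genome-wide search for dsRNAs that reduce cell number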 (primary screen)
Cell system: Drosophila Kc and S2R+ cells
Knock-down reagent: long dsRNA against Drosophila genes
Detection: 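Cell number per well after knock-down, printed as raw plate values; calls were based on per-plate z-scores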
Scale: Kc cell number and S2R+ cell number: higher = more cells remaining
Hit rule: 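Active when the per-plate z-score of cell number is 3 or more in the direction of fewer cells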

Against mEFTu1 [DRSC06959], the values are Kc cell number, rep 1 = 1.37e6; Kc cell number, rep 2 = 1.41e6; S2R+ cell number, rep 1 = 1.06e6; S2R+ cell number, rep 2 = 1.08e6.
Knock-down of Arpc3A [DRSC15596] gave: Kc cell number, rep 1 = 1.30e6; Kc cell number, rep 2 = 1.30e6; S2R+ cell number, rep 1 = 1.17e6; S2R+ cell number, rep 2 = 1.29e6.
After knock-down of Rbp6 [DRSC09462] the results were Kc cell number, rep 1 = 1.52e6; Kc cell number, rep 2 = 1.63e6; S2R+ cell number, rep 1 = 1.25e6; S2R+ cell number, rep 2 = 1.43e6.
Rbp6 [DRSC09464] scored Kc cell number, rep 1 = 1.69e6; Kc cell number, rep 2 = 1.91e6; S2R+ cell number, rep 1 = 1.25e6; S2R+ cell number, rep 2 = 1.38e6.
Knock-down of Rbp6 [DRSC10072] came out at: Kc cell number, rep 1 = 1.74e6; Kc cell number, rep 2 = 1.85e6; S2R+ cell number, rep 1 = 1.28e6; S2R+ cell number, rep 2 = 1.42e6.
Silencing of Rbp6 [DRSC10073] gave: Kc cell number, rep 1 = 1.72e6; Kc cell number, rep 2 = 1.84e6; S2R+ cell number, rep 1 = 1.32e6; S2R+ cell number, rep 2 = 1.32e6.
With knock-down of Rbp6 [DRSC10662], the screen gave Kc cell number, rep 1 = 1.68e6; Kc cell number, rep 2 = 1.82e6; S2R+ cell number, rep 1 = 1.31e6; S2R+ cell number, rep 2 = 1.39e6.
Depletion of ftz [DRSC12626] came out at: Kc cell number, rep 1 = 1.52e6; Kc cell number, rep 2 = 1.69e6; S2R+ cell number, rep 1 = 1.38e6; S2R+ cell number, rep 2 = 1.60e6.
With knock-down of Argl + CG9515 [DRSC03243] the results were Kc cell number, rep 1 = 1.47e6; Kc cell number, rep 2 = 1.56e6; S2R+ cell number, rep 1 = 1.03e6; S2R+ cell number, rep 2 = 1.05e6.
Silencing of Argl + CG9515 [DRSC03245] came out at: Kc cell number, rep 1 = 1.54e6; Kc cell number, rep 2 = 1.59e6; S2R+ cell number, rep 1 = 1.16e6; S2R+ cell number, rep 2 = 1.29e6.
Silencing of CG15673 [DRSC04263] came out at: Kc cell number, rep 1 = 1.57e6; Kc cell number, rep 2 = 1.64e6; S2R+ cell number, rep 1 = 1.23e6; S2R+ cell number, rep 2 = 3.05e5.
After knock-down of CG14131 [DRSC10135], the screen gave Kc cell number, rep 1 = 1.42e6; Kc cell number, rep 2 = 1.41e6; S2R+ cell number, rep 1 = 1.06e6; S2R+ cell number, rep 2 = 1.18e6.

Laid out differently: entries from further up
gene knocked down	dsRNA	Kc cell number, rep 1	Kc cell number, rep 2	S2R+ cell number, rep 1	S2R+ cell number, rep 2
Rbp6	DRSC10073	1.72e6	1.84e6	1.32e6	1.32e6
Rbp6	DRSC10662	1.68e6	1.82e6	1.31e6	1.39e6

The listing continues:
With knock-down of CG2712 [DRSC18589] the results were Kc cell number, rep 1 = 5.32e5; S2R+ cell number, rep 1 = 8.66e5.
After knock-down of mRpL21 [DRSC11100], the record shows Kc cell number, rep 1 = 1.40e6; Kc cell number, rep 2 = 1.41e6; S2R+ cell number, rep 1 = 1.09e6; S2R+ cell number, rep 2 = 1.18e6.
Silencing of CG9981 [DRSC20225] came out at: Kc cell number, rep 1 = 1.46e6; Kc cell number, rep 2 = 1.50e6; S2R+ cell number, rep 1 = 1.08e6; S2R+ cell number, rep 2 = 1.15e6.
CG14610 + asRNA:CR42738 [DRSC12554] scored Kc cell number, rep 1 = 1.64e6; Kc cell number, rep 2 = 1.87e6; S2R+ cell number, rep 1 = 1.23e6; S2R+ cell number, rep 2 = 1.36e6.
Against Cpr65Eb [DRSC11026], the entry reads Kc cell number, rep 1 = 1.27e6; Kc cell number, rep 2 = 1.18e6; S2R+ cell number, rep 1 = 1.25e6; S2R+ cell number, rep 2 = 1.21e6.
Depletion of CG2611 [DRSC02710] gave: Kc cell number, rep 1 = 1.32e6; Kc cell number, rep 2 = 1.43e6; S2R+ cell number, rep 1 = 1.10e6; S2R+ cell number, rep 2 = 1.12e6.
After knock-down of CG3706 [DRSC18649], the screen gave Kc cell number, rep 1 = 1.66e6; Kc cell number, rep 2 = 1.76e6; S2R+ cell number, rep 1 = 1.10e6; S2R+ cell number, rep 2 = 1.22e6.
Silencing of CG6040 [DRSC15954] gave: Kc cell number, rep 1 = 1.59e6; Kc cell number, rep 2 = 1.61e6; S2R+ cell number, rep 1 = 1.14e6; S2R+ cell number, rep 2 = 1.19e6.
For Cyp4e1 [DRSC07370], the values are Kc cell number, rep 1 = 1.46e6; Kc cell number, rep 2 = 1.55e6; S2R+ cell number, rep 1 = 1.28e6; S2R+ cell number, rep 2 = 1.39e6.
For ppk21 [DRSC14466], the values are Kc cell number, rep 1 = 1.41e6; Kc cell number, rep 2 = 1.40e6; S2R+ cell number, rep 1 = 9.78e5; S2R+ cell number, rep 2 = 1.06e6.
CG33252 [DRSC19162] scored Kc cell number, rep 1 = 1.53e6; Kc cell number, rep 2 = 1.83e6; S2R+ cell number, rep 1 = 1.13e6; S2R+ cell number, rep 2 = 1.26e6.
After knock-down of Arpc1 [DRSC03438] the results were Kc cell number, rep 1 = 1.21e6; Kc cell number, rep 2 = 1.29e6; S2R+ cell number, rep 1 = 1.14e6; S2R+ cell number, rep 2 = 1.20e6.
With knock-down of HP6 [DRSC00471], the screen gave Kc cell number, rep 1 = 1.39e6; Kc cell number, rep 2 = 1.33e6; S2R+ cell number, rep 1 = 1.01e6; S2R+ cell number, rep 2 = 1.12e6.
amon [DRSC13784] gave Kc cell number, rep 1 = 1.27e6; Kc cell number, rep 2 = 1.54e6; S2R+ cell number, rep 1 = 1.13e6; S2R+ cell number, rep 2 = 1.15e6.
Knock-down of amon [DRSC16900] came out at: Kc cell number, rep 1 = 1.32e6; Kc cell number, rep 2 = 1.32e6; S2R+ cell number, rep 1 = 9.88e5; S2R+ cell number, rep 2 = 1.12e6.
